Source: patent publication US20130071897A1, “METHOD FOR CONTROLLING UNDESIRABLE BYPRODUCTS FORMATION CAUSED BY CONTAMINATING ORGANISMS IN THE PRODUCTION OF ETHANOL FROM SYNGAS” (COSKATA, INC., priority 2011, published 2013)
Some results were stated once for a whole list of compounds, not compound by compound.

System: C. autoethanogenum
Assay: Balch tube batch growth of homoacetogen C. autoethanogenum on fructose, optical density
Type: cell-based
Conditions: summary of batch growth tests
Protocol: These compounds were first tested to determine their effect on a known homoacetogen. Each compound was tested in a series of batch experiments to determine the growth response of a homoacetogen to the presence of the compound at varying concentrations. The batch experiments were all conducted by anoxically filling a Balch tube with 5 ml of a fermentation medium having the composition given in Tables 2 and 3. To expedite results, these batch experiments used fructose as the growth nutrient source for bacteria. Thus, the media included a 5 g/L of fructose.
Each tube was inoculated with 0.5 ml of the same strain of C. autoethanogenum bacteria seed culture inoculum. […] Each fermentation of the bacteria in the media at the different concentration of crotonate derivatives were allowed to progress and were monitored to determine the bacteria growth at selected intervals of time varying from approximately 20 hours to 190 hours. Growth at the intervals was measured by reading the optical density (OD) of the fermentation liquid. Optical density was measured using a Spectronic Spec 20 (Thermo Spectronic) at a wavelength of 600 nm. The OD of the Balch tube culture was measured directly in the tube using absorbance mode on the Spec 20 machine. The machine was set to zero absorbance by first measuring and adjusting the setting to zero absorbance using media only as a blank. […]

Row | Compound | Concentration up to which tolerated by the homoacetogens
1 | CCOC(=O)C=C(C(F)(F)F)C(F)(F)F [Compound A, ethyl 4,4,4-trifluoro-3-(trifluoromethyl)crotonate] | up to 1000 ppm
2 | O=C(O)C=C(C(F)(F)F)C(F)(F)F [D, 4,4,4-trifluoro-3-(trifluoromethyl)crotonic acid] | up to 1000 ppm
